System: CT-DNA
Assay: DNA binding by cyclic voltammetry
Parameters: species or system calf
Conditions: for Do (diffusion coefficient), Bound / E° (or) E1/2 (formal electrode potential), Bound / Ipa/Ipc, Bound / ΔEP (peak-to-peak separation), Bound: bound to CT-DNA; for ΔEP (peak-to-peak separation), Bound / ΔEP (peak-to-peak separation), Free: scan rate 100 mV s^−1; for Es° = Eb° − Ef°: shift of formal potential on DNA binding; for Do (diffusion coefficient), Free / E° (or) E1/2 (formal electrode potential), Free / Ipa/Ipc, Free / ΔEP (peak-to-peak separation), Free: without DNA
Protocol: The CV experiment was carried out for free substances at 10 µM at room temperature with a 5 mM Tris-HCl/50 mM NaCl buffer solution (pH: 7.4). While CT-DNA increases (0–10 µM) in each sample solution, shifts in potential, including variations in the anodic and cathodic peak currents, have been monitored.
2.2.7. Evaluation of DNA interaction properties using cyclic voltammetry technique The electrochemical analysis is a critical entity to examine the electron transfer reactions of the test compounds. With a scan rate of 0.1V, the CHI 620C electrochemical analyzer was utilized with a three-electrode system consisting of glassy carbon as the working electrode, Ag/AgCl as the reference electrode, and platinum wire as the counter/auxiliary electrode to monitor changes in peak current and peak potential during the interaction between test compound and DNA. The changes in peak current and peak potential further afford data on the binding constant as well as the mode of interaction for test compound –DNA adducts. In single-compartment cells of 5 –15 mL, electrochemical titrations for all test compounds were executed at 25 °C in the absence and presence of DNA. The solutions were then deoxygenated by passing them through N 2 before measurements were made. The electrochemical analysis for free compounds was executed at a 10 µM concentration in the presence of 5mM Tr is-HCl /50 mM NaCl (pH = 7.2) buffer solution. Changes in the anodic […]
and cathodic peak currents, as well as potential shifts, have been observed as CT-DNA concentrations in each solution of complexes rise from 1 to 10 µM [32].
I ) = log [DNA] + log Kb (S24)
The peak currents of the chemical in the absence and presence of deoxyribonucleic acid are designated as I0 and I, respectively.
Kb values for all samples were estimated through the linear regression plot of log (1/[DNA]) versus log (I/I0–I) by method-I. Equation (S26) was attained from equation (S25).
Cf and Cb are represented as the free substance concentration and DNA-interacted compound, respectively, and equation (S28) was obtained by comparing equations (S26) and (S27).
Ipa is denoted as the anodic peak current in amperes, n is represented as the number of electrons participating in the redox (M 1+/M2+) process (n=1), The activation coefficient (charge transfer coefficient) is shown by the symbol α. and the value is equal to 0.5, which is a typically supported approximation for numerous quasi-reversible systems.
2.3. DFT and molecular modelling studies
DFT calculations were performed to comprehend the electronic structure and reactivity of ligand (HL) and metal complexes ( 1b-2b) using the Gaussian 09 package [ 34]. Geometries were fully optimized both in the gas phase and methanol solution using B3LYP, and comparatively later with the CAM-B3LYP and M06-2X functionals. For each complex, the […]

Structure (SMILES)	Do (diffusion coefficient), Bound	E° (or) E1/2 (formal electrode potential), Bound [V]	Ipa/Ipc, Bound	ΔEP (peak-to-peak separation), Bound [V]	Es° = Eb° − Ef° [V]	Do (diffusion coefficient), Free	E° (or) E1/2 (formal electrode potential), Free [V]	Ipa/Ipc, Free	ΔEP (peak-to-peak separation), Free [V]
[Cu+2].[O-]c1ccccc1N=Cc1ccc(N2CCOCC2)cc1.[O-]c1ccccc1N=Cc1ccc(N2CCOCC2)cc1.c1cnc2c(c1)ccc1cccnc12 [(1b), [Cu^II(L)2(phen)]]	4.0688 × 10^−5 cm^2 s^−1	0.7317	0.7920	0.2031	0.0302	4.4035 × 10^−5 cm^2 s^−1	0.7015	0.8494	0.2366
[O-]c1ccccc1N=Cc1ccc(N2CCOCC2)cc1.[O-]c1ccccc1N=Cc1ccc(N2CCOCC2)cc1.[Zn+2].c1cnc2c(c1)ccc1cccnc12 [(2b), [Zn^II(L)2(phen)]]	3.6573 × 10^−5 cm^2 s^−1	0.5712	0.6464	0.4350	0.034	4.0597 × 10^−5 cm^2 s^−1	0.5372	0.6072	0.4261
Oc1ccccc1N=Cc1ccc(N2CCOCC2)cc1 [(HL), 2-(4-morpholinobenzylideneamino)phenol]	2.5809 × 10^−5 cm^2 s^−1	0.3680	1.3424	0.8890	0.019	2.8570 × 10^−5 cm^2 s^−1	0.3490	1.4295	0.7420

From publication PMC9775322, “An Integrated Analysis of Mechanistic Insights into Biomolecular Interactions and Molecular Dynamics of Bio-Inspired Cu(II) and Zn(II) Complexes towards DNA/BSA/SARS-CoV-2 3CL^pro by Molecular Docking-Based Virtual Screening and FRET Detection” (Biomolecules, 2022)
